Measured values taken from PubChem BioAssay AID493014 (National Center for Advancing Translational Sciences (NCATS), 2011).
The other results are listed elsewhere or left out. Shown are side measurements of this screen, not its main read-out; they come without a call. Compounds called inactive in the main read-out are mostly missing here. Potencies come from curve fits of mixed quality, noted in brackets.

Experiment: qHTS Assay to Find Inhibitors of Chronic Active B-Cell Receptor Signaling
Settings: ABC-DLBCL IkBa-CBG/CBR reporter, luminescence ratio (green luciferase fused to IkBa over red control in TMD8 lymphoma cells), 4 h
In short: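 Concentration-response series (up to 46 uM) were applied to TMD8 dual-reporter cells for 4 h at 37C with doxycycline. Green/red ratio, after filter-overlap correction, defined %Activity; red signal alone was normalised to basal cells and zero luminescence.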

[1] = measured here: CBR red luminescence, cell number
[2] = measured here: IkBa-CBG green luminescence

Row | Structure (SMILES) | AC50 [1] | AC50 [2]
1 | CCOC(=O)CC(=O)CSc1nc2ccsc2c(=O)n1Cc1ccccc1 | 11.2 µM [falling, partial curve, poor fit] | 25.1 µM [rising, partial curve, poor fit]
2 | Cc1nc2ccccc2c2oc(C(=O)N3CCCC(C)C3)cc12 (stereo not given) | 35.5 µM [falling, single point] | –
3 | COc1cccc(NC(=O)c2ccc3c(c2)CCN3S(C)(=O)=O)c1 | 14.1 µM [falling, single point] | –
4 | Cc1cccc(N=C2NC(=O)/C(=C\c3cccs3)S2)c1 | 8.2 µM [falling, partial curve] | –
5 | COc1ccc(NC(=S)NCCCCCC(=O)C[N+](=O)[O-])cc1 | 11.2 µM [falling, partial curve] | –
6 | O=C(NCc1ccccc1CN1CCCC1)c1cccc(S(=O)(=O)Nc2ccc(F)cc2)c1 | 18.4 µM [falling, single point] | –
7 | CCOc1ccc(C2C(C(=O)c3ccc(C)o3)=C(O)C(=O)N2c2nc(C)c(C(=O)OC)s2)cc1 (stereo not given) | 10 µM [falling, partial curve, poor fit] | –
8 | CC(=O)NC(CCS(C)(=O)=O)C(=O)Nc1ccc2c(c1)OCCO2 (stereo not given) | 29.1 µM [rising, single point] | –
9 | COc1ccc(NC(=O)c2cc(-c3ccco3)on2)cc1 | 25.1 µM [falling, single point] | –
10 | O=C(/C=C/c1ccccc1)NCC(=O)N/N=C\c1cccnc1 | 25.9 µM [rising, single point] | –
11 | CCC1CCCCN1C(=O)c1nn2cccnc2c1Cl (stereo not given) | 32.6 µM [rising, single point] | –
12 | O=C1c2ccccc2NC(c2cccc(O)c2)N1O (stereo not given) | 11.2 µM [falling, partial curve, poor fit] | –
13 | CNC(=O)C(=O)N/N=C/c1cccnc1 | 3.16 µM [falling, partial curve, poor fit] | –
14 | C#CCn1c(=NC(=O)c2ccc(Cl)s2)sc2cccc(OC)c21 | 8.2 µM [falling, partial curve] | –
15 | CCC(C(=O)NC1CCCC1)N(Cc1ccco1)C(=O)Cn1nnc(-c2ccc(C)cc2)n1 (stereo not given) | 6.51 µM [falling, single point] | –
16 | C=CCC[C@@H](Cc1ccc(F)cc1)C(=O)OC[C@@H](NC(=O)[C@@H](CC=C)CC(=O)N[C@@H](CO)Cc1ccccc1)C(C)(C)C | 23.1 µM [falling, single point] | –
17 | Cc1nc2cc(-c3cccc(F)c3)nn2c(C)c1CCC(=O)N1CCN(c2ccccn2)CC1 | 5.62 µM [falling, full curve, poor fit] | –
18 | O=C(CCn1cccc1)Nc1ccc(F)cc1 | 16.4 µM [rising, partial curve] | –
19 | O=C(/C=C/c1ccccc1)NCCOc1ccccc1 | 29.1 µM [falling, single point] | –
20 | CC(=O)N1c2ccc(S(=O)(=O)NCCC(=O)N(C)C3CCCCC3)cc2CC1C (stereo not given) | 35.5 µM [rising, single point] | –
21 | COc1ccc(NC(=O)CSc2nnnn2C2CC2)cc1S(=O)(=O)N1CCOCC1 | 14.6 µM [rising, partial curve, poor fit] | –

16 structures from above, sorted by molecular weight, rising.
Row | Structure (SMILES) | AC50 [1] | AC50 [2]
18 | O=C(CCn1cccc1)Nc1ccc(F)cc1 | 16.4 µM [rising, partial curve] | –
12 | O=C1c2ccccc2NC(c2cccc(O)c2)N1O (stereo not given) | 11.2 µM [falling, partial curve, poor fit] | –
19 | O=C(/C=C/c1ccccc1)NCCOc1ccccc1 | 29.1 µM [falling, single point] | –
9 | COc1ccc(NC(=O)c2cc(-c3ccco3)on2)cc1 | 25.1 µM [falling, single point] | –
11 | CCC1CCCCN1C(=O)c1nn2cccnc2c1Cl (stereo not given) | 32.6 µM [rising, single point] | –
4 | Cc1cccc(N=C2NC(=O)/C(=C\c3cccs3)S2)c1 | 8.2 µM [falling, partial curve] | –
10 | O=C(/C=C/c1ccccc1)NCC(=O)N/N=C\c1cccnc1 | 25.9 µM [rising, single point] | –
5 | COc1ccc(NC(=S)NCCCCCC(=O)C[N+](=O)[O-])cc1 | 11.2 µM [falling, partial curve] | –
3 | COc1cccc(NC(=O)c2ccc3c(c2)CCN3S(C)(=O)=O)c1 | 14.1 µM [falling, single point] | –
8 | CC(=O)NC(CCS(C)(=O)=O)C(=O)Nc1ccc2c(c1)OCCO2 (stereo not given) | 29.1 µM [rising, single point] | –
14 | C#CCn1c(=NC(=O)c2ccc(Cl)s2)sc2cccc(OC)c21 | 8.2 µM [falling, partial curve] | –
1 | CCOC(=O)CC(=O)CSc1nc2ccsc2c(=O)n1Cc1ccccc1 | 11.2 µM [falling, partial curve, poor fit] | 25.1 µM [rising, partial curve, poor fit]
20 | CC(=O)N1c2ccc(S(=O)(=O)NCCC(=O)N(C)C3CCCCC3)cc2CC1C (stereo not given) | 35.5 µM [rising, single point] | –
17 | Cc1nc2cc(-c3cccc(F)c3)nn2c(C)c1CCC(=O)N1CCN(c2ccccn2)CC1 | 5.62 µM [falling, full curve, poor fit] | –
7 | CCOc1ccc(C2C(C(=O)c3ccc(C)o3)=C(O)C(=O)N2c2nc(C)c(C(=O)OC)s2)cc1 (stereo not given) | 10 µM [falling, partial curve, poor fit] | –
16 | C=CCC[C@@H](Cc1ccc(F)cc1)C(=O)OC[C@@H](NC(=O)[C@@H](CC=C)CC(=O)N[C@@H](CO)Cc1ccccc1)C(C)(C)C | 23.1 µM [falling, single point] | –

(cont.)

Row | Structure (SMILES) | AC50 [1] | AC50 [2]
22 | Cc1ccc(C2=NS(=O)(=O)N(C)C(C(=O)Nc3ccc(F)cc3F)=C2)cc1 | 10 µM [falling, partial curve, poor fit] | –
23 | COc1ccc(C)cc1NC(=O)c1nn(C)c(C(=O)Nc2cc(C)ccc2OC)c1[N+](=O)[O-] | 0.501 µM [rising, full curve, poor fit] | –
24 | O=C1CCCc2cc3c(cc21)CC1(C3)Cc2cc3c(cc2C1)C(=O)CCC3 | 7.94 µM [falling, partial curve] | –
25 | O=S(=O)(c1ccccc1)c1nc(-c2ccccc2Cl)oc1NCCCN1CCOCC1 | 23.1 µM [falling, partial curve, poor fit] | –
26 | CN(C)C(=S)Nc1ccc(Cl)cc1 | 17.8 µM [rising, partial curve, poor fit] | –
27 | CCc1ccc(NC(=O)NCc2ccc3c(c2)OCO3)cc1 | 8.91 µM [falling, partial curve] | –
28 | CCc1ccc(NC(=O)[C@@H](NC(=O)[C@@H]2Cc3ccccc3CN2)C(C)CC)cc1 (stereo not given in full) | 0.708 µM [rising, full curve, poor fit] | –
29 | CCCCCC(=O)N(CN1C(=O)CCC1=O)c1ccccc1 | 1.46 µM [falling, partial curve] | –
30 | O=C(Nc1ccccc1Cl)N1CCN(c2ncccn2)CC1 | 18.4 µM [falling, single point] | –
31 | Cc1nc(CNC(=O)CC2C(=O)NCCN2Cc2cccc(Oc3ccccc3)c2)cs1 (stereo not given) | 1.12 µM [rising, partial curve, poor fit] | –
32 | CCc1ccc2nc(NC(=O)c3ccc(N4C(=O)CCC4=O)cc3)sc2c1 | 8.91 µM [falling, partial curve] | –
33 | CCN(CC)CC#CCC(O)(c1ccccc1)c1ccc(Br)cc1 (stereo not given) | 35.5 µM [falling, single point] | –
34 | FC(F)Sc1ccc(NC2=NCCCCC2)cc1 | 11.2 µM [falling, partial curve] | –
35 | O=C(CN1CCCCCC1)Nc1ccc(Br)cc1 | 29.1 µM [falling, single point] | –
36 | Cc1ccc(C)n1-c1ccc(C(=O)NN)cc1 | 3.26 µM [falling, full curve, poor fit] | –
37 | N#Cc1ccccc1OCC(=O)Nc1ccc2c(c1)OCCCO2 | 15.8 µM [falling, single point] | –
38 | N#CCCN(C(=O)Nc1ccc(Cl)cc1)c1ccccc1 | 5.8 µM [rising, full curve] | –
39 | Cc1sc2nc(SCC(=O)Nc3ccc(S(N)(=O)=O)cc3)[nH]c(=O)c2c1C | 0.501 µM [falling, partial curve, poor fit] | –
40 | COc1ccc(-c2nc(N)nc(C(F)(F)F)c2-c2cscn2)c(O)c1 | 3.55 µM [falling, partial curve, poor fit] | –
41 | N#Cc1nn(-c2ccccc2)nc1N1CCCCC1 | 29.1 µM [rising, single point] | –
42 | Nc1nc(Sc2c([N+](=O)[O-])cc(C(F)(F)F)cc2[N+](=O)[O-])n[nH]1 | 35.5 µM [falling, single point] | –

Row | Structure (SMILES) | AC50 [1] | AC50 [2]
43 | Cc1cccc(-c2ccc3ncnc(NCc4cccnc4)c3c2)c1 | 1.64 µM [rising, partial curve, poor fit] | –
44 | COC(=O)CSC1=NS(=O)(=O)c2ccccc21 | 3.66 µM [rising, full curve, poor fit] | –
45 | O=C(COC(=O)c1ccc([N+](=O)[O-])cc1Cl)NCc1ccco1 | 9.2 µM [rising, partial curve, poor fit] | –
46 | O=C(CCC1COc2ccccc2O1)Nc1ncccc1O (stereo not given) | 13 µM [falling, partial curve, poor fit] | –
47 | COCC(C)NS(=O)(=O)c1ccc(NC(=O)c2ccccn2)cc1 (stereo not given) | 6.31 µM [rising, partial curve, poor fit] | –
48 | CCOC(=O)C(C)On1c(-c2cccc(Cl)c2)nc2ccc([N+](=O)[O-])cc21 (stereo not given) | 10.3 µM [falling, partial curve, poor fit] | –
49 | Cc1ccc(C)c2[nH]c(=O)c(CCNC(=O)c3cc4ccccc4o3)cc12 | 16.4 µM [rising, single point] | –
50 | Cc1ccc(/C=N/NC(=O)CSc2nnc(-c3ccc(Cl)cc3)n2-c2ccccc2)o1 | 14.6 µM [falling, partial curve, poor fit] | –
51 | COc1ccc(/C(N)=N/OC(=O)COc2ccccc2Cl)cc1 | 5.17 µM [rising, full curve, poor fit] | –
52 | O=c1[nH]c(CN2CCN(S(=O)(=O)/C=C/c3ccccc3)CC2)nc2cc(Cl)ccc12 | 12.6 µM [falling, partial curve, poor fit] | –
53 | Cc1cccc(N(C(=O)Nc2ccc(Cl)cc2)C2=NCC(C)S2)n1 (stereo not given) | 7.94 µM [rising, partial curve, poor fit] | –
54 | CC(=O)c1cccc(NC(=O)N2CCCC2C(=O)NCc2ccc(F)cc2)c1 (stereo not given) | 35.5 µM [rising, single point] | –
55 | CCCOc1ccc(C(F)(F)F)cc1NS(=O)(=O)c1ccc(Cl)nc1 | 23.1 µM [falling, partial curve, poor fit] | –
56 | Cn1c(/C(C#N)=C/c2ccc(-c3ccc(S(N)(=O)=O)cc3)o2)nc2ccccc21 | 10.3 µM [falling, partial curve] | 16.4 µM [rising, partial curve, poor fit]
57 | COc1cc(/C=N/NC(=O)c2cc(-c3ccccc3OC(C)C)nc3ccccc23)ccc1O | 29.1 µM [falling, single point] | –
58 | CCCCCc1nc2sc3c(c2c(=O)n1NC(=O)c1ccc([N+](=O)[O-])cc1)CC(C)(C)OC3 | 14.6 µM [falling, partial curve] | 29.1 µM [rising, partial curve, poor fit]
59 | Cc1ccc(N/C=C/C(=O)C(C)(C)C)c(O)c1 | 18.4 µM [falling, single point] | –
60 | CCN(C(=O)COC(=O)/C=C/c1cnc2ccccc2n1)C1CCS(=O)(=O)C1 (stereo not given) | 35.5 µM [falling, single point] | –
61 | O=C(CN(c1cccc(C(F)(F)F)c1)S(=O)(=O)c1ccc(Cl)c([N+](=O)[O-])c1)NCc1ccccc1Cl | 20.6 µM [falling, partial curve] | –
62 | CC(C)c1cc(C(=O)Nc2sc3c(c2C#N)CCC3)no1 | 14.1 µM [rising, partial curve] | –
